Data source: PubChem BioAssay AID1259405 (NCATS, 2018)

Purpose: 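Silenced genes that increase secreted GFP made by CHO cells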 (primary screen)
System: Chinese hamster CHO-K1 ovary cells with stable secreted eGFP expression
Reagents: single siRNA against mouse genes, 0.8 pmol siRNA per well (2 µl of 400 nM stock)
Timing: 3 days
Measured: 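Per-well intracellular GFP measured by laser scanning cytometry, plus viability from ATP luminescence, each relative to plate median of non-targeting control wells, in %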
Reading the numbers: GFP, % of control: higher = more GFP per well, higher productivity; viability (ATP), % of control: higher = more viable cells (more ATP)
Rule for the call: 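Called active when intracellular GFP, relative to negative control, is at or above 120%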
Here is one part, drawn at random, of about 50,000 reagents tested. About 4,000 of all reagents (8%) were called active. 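Mouse siRNA library applied to hamster cells; one well for each siRNA.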 The numbers tell different reagents against one gene apart. Reagent sequences are not shown.

| target gene | siRNA no. | GFP, % of control | viability (ATP), % of control | call |
| --- | --- | --- | --- | --- |
| Or5w1 (olfactory receptor family 5 subfamily W member 1) | 1 | 104 | 61.1 | inactive |
| Or5w1 (olfactory receptor family 5 subfamily W member 1) | 2 | 79.3 | 63.5 | inactive |
| Or5w1 (olfactory receptor family 5 subfamily W member 1) | 3 | 135 | 128 | active |
| Or6c217 (olfactory receptor family 6 subfamily C member 217) | 1 | 70.4 | 76.8 | inactive |
| Or6c217 (olfactory receptor family 6 subfamily C member 217) | 2 | 67.3 | 44.2 | inactive |
| Or6c217 (olfactory receptor family 6 subfamily C member 217) | 3 | 81.4 | 77.5 | inactive |
| Gzmc (granzyme C) | 1 | 96.6 | 58.8 | inactive |
| Gzmc (granzyme C) | 2 | 29.9 | 54.2 | inactive |
| Gzmc (granzyme C) | 3 | 92.1 | 79.8 | inactive |
| Qtrt1 (queuine tRNA-ribosyltransferase catalytic subunit 1) | 1 | 188 | 115 | active |
| Qtrt1 (queuine tRNA-ribosyltransferase catalytic subunit 1) | 2 | 84.2 | 163 | inactive |
| Qtrt1 (queuine tRNA-ribosyltransferase catalytic subunit 1) | 3 | 83.9 | 87.3 | inactive |
| Chst1 (carbohydrate sulfotransferase 1) | 1 | 113 | 70 | inactive |
| Chst1 (carbohydrate sulfotransferase 1) | 2 | 107 | 135 | inactive |
| Chst1 (carbohydrate sulfotransferase 1) | 3 | 83.8 | 104 | inactive |
| Or52b2 (olfactory receptor family 52 subfamily B member 2) | 1 | 94.6 | 71.4 | inactive |
| Or52b2 (olfactory receptor family 52 subfamily B member 2) | 2 | 95 | 53.6 | inactive |
| Or52b2 (olfactory receptor family 52 subfamily B member 2) | 3 | 65.3 | 74.2 | inactive |
| Dnm1 (dynamin 1) | 1 | 37.9 | 37.1 | inactive |
| Dnm1 (dynamin 1) | 2 | 84.1 | 75.6 | inactive |
| Dnm1 (dynamin 1) | 3 | 136 | 43.2 | active |
| Ppp2r5c (protein phosphatase 2, regulatory subunit B', gamma) | 1 | 109 | 91 | inactive |
| Ppp2r5c (protein phosphatase 2, regulatory subunit B', gamma) | 2 | 60.6 | 54.5 | inactive |
| Ppp2r5c (protein phosphatase 2, regulatory subunit B', gamma) | 3 | 68.8 | 64 | inactive |
| Med1 (mediator complex subunit 1) | 1 | 106 | 77.6 | inactive |
| Med1 (mediator complex subunit 1) | 2 | 137 | 78.2 | active |
| Ccdc202 (coiled-coil domain containing 202) | 1 | 71.9 | 71.4 | inactive |
| Ccdc202 (coiled-coil domain containing 202) | 2 | 48.9 | 61.4 | inactive |
| Ccdc202 (coiled-coil domain containing 202) | 3 | 69.1 | 82.2 | inactive |
| Lsm8 (LSM8 homolog, U6 small nuclear RNA associated) | 1 | 42.8 | 62.7 | inactive |
| Lsm8 (LSM8 homolog, U6 small nuclear RNA associated) | 2 | 105 | 105 | inactive |
| Lsm8 (LSM8 homolog, U6 small nuclear RNA associated) | 3 | 67.8 | 84.8 | inactive |
| Kcne5 | 1 | 68.8 | 39.1 | inactive |
| Kcne5 | 2 | 114 | 70.8 | inactive |
| Kcne5 | 3 | 97.3 | 82 | inactive |

Targets listed so far whose gene name begins with P or p (3):
| target gene | siRNA no. | GFP, % of control | viability (ATP), % of control | call |
| --- | --- | --- | --- | --- |
| Ppp2r5c (protein phosphatase 2, regulatory subunit B', gamma) | 1 | 109 | 91 | inactive |
| Ppp2r5c (protein phosphatase 2, regulatory subunit B', gamma) | 2 | 60.6 | 54.5 | inactive |
| Ppp2r5c (protein phosphatase 2, regulatory subunit B', gamma) | 3 | 68.8 | 64 | inactive |
